This is an account of results in the supplement of paper PMC12819154, “High-throughput peptide-centric local stability assay extends protein–ligand identification to membrane proteins, tissues and bacteria” (Nature Structural & Molecular Biology, 2025).

Sequences of proteins named here, by UniProt entry; tags and fusion partners are left off. A change or cut given only in a name is not applied to a line headed by its entry.
UniProt Q8K0E8: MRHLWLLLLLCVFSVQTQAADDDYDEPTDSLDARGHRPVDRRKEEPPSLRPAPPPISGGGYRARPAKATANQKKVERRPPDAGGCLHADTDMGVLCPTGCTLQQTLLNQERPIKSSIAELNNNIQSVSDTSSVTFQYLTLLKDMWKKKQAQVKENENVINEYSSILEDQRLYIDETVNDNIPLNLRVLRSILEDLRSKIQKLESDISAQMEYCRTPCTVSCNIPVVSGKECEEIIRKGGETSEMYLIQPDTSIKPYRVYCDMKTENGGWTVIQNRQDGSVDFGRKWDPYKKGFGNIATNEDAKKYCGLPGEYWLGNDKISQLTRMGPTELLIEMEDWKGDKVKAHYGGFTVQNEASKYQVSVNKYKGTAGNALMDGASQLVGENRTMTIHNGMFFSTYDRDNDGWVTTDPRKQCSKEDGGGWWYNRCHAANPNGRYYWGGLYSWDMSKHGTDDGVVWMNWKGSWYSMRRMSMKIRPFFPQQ
UniProt Q8CG48, whole entry: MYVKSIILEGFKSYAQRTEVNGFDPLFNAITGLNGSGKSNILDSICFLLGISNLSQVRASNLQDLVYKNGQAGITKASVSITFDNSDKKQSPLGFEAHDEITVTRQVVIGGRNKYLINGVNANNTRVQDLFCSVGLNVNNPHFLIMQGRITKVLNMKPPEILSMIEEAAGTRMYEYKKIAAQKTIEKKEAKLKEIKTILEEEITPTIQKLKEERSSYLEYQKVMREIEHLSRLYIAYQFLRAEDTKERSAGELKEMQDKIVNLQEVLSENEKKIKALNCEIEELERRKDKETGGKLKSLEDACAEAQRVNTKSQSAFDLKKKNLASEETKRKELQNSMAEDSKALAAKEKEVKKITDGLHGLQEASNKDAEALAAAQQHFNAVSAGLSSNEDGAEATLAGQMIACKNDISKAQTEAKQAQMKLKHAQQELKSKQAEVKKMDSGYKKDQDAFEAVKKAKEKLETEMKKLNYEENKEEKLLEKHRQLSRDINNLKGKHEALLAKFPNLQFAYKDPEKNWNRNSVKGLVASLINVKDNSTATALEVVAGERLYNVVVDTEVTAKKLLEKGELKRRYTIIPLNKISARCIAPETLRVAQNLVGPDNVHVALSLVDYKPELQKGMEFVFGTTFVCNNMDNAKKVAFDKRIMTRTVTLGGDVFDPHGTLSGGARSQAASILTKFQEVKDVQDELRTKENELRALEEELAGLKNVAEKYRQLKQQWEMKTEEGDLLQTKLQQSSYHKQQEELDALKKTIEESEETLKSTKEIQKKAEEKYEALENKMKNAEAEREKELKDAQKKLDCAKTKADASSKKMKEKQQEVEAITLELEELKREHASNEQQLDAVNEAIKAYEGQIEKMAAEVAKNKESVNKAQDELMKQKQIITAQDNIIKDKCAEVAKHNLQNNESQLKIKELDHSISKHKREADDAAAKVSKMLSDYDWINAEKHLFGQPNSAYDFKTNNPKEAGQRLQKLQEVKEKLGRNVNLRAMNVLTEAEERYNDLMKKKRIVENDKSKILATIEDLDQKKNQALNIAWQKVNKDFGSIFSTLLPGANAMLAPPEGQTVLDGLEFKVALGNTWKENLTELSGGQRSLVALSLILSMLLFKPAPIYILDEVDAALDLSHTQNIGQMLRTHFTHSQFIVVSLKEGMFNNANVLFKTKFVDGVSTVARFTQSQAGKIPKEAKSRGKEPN
UniProt Q8CJ19: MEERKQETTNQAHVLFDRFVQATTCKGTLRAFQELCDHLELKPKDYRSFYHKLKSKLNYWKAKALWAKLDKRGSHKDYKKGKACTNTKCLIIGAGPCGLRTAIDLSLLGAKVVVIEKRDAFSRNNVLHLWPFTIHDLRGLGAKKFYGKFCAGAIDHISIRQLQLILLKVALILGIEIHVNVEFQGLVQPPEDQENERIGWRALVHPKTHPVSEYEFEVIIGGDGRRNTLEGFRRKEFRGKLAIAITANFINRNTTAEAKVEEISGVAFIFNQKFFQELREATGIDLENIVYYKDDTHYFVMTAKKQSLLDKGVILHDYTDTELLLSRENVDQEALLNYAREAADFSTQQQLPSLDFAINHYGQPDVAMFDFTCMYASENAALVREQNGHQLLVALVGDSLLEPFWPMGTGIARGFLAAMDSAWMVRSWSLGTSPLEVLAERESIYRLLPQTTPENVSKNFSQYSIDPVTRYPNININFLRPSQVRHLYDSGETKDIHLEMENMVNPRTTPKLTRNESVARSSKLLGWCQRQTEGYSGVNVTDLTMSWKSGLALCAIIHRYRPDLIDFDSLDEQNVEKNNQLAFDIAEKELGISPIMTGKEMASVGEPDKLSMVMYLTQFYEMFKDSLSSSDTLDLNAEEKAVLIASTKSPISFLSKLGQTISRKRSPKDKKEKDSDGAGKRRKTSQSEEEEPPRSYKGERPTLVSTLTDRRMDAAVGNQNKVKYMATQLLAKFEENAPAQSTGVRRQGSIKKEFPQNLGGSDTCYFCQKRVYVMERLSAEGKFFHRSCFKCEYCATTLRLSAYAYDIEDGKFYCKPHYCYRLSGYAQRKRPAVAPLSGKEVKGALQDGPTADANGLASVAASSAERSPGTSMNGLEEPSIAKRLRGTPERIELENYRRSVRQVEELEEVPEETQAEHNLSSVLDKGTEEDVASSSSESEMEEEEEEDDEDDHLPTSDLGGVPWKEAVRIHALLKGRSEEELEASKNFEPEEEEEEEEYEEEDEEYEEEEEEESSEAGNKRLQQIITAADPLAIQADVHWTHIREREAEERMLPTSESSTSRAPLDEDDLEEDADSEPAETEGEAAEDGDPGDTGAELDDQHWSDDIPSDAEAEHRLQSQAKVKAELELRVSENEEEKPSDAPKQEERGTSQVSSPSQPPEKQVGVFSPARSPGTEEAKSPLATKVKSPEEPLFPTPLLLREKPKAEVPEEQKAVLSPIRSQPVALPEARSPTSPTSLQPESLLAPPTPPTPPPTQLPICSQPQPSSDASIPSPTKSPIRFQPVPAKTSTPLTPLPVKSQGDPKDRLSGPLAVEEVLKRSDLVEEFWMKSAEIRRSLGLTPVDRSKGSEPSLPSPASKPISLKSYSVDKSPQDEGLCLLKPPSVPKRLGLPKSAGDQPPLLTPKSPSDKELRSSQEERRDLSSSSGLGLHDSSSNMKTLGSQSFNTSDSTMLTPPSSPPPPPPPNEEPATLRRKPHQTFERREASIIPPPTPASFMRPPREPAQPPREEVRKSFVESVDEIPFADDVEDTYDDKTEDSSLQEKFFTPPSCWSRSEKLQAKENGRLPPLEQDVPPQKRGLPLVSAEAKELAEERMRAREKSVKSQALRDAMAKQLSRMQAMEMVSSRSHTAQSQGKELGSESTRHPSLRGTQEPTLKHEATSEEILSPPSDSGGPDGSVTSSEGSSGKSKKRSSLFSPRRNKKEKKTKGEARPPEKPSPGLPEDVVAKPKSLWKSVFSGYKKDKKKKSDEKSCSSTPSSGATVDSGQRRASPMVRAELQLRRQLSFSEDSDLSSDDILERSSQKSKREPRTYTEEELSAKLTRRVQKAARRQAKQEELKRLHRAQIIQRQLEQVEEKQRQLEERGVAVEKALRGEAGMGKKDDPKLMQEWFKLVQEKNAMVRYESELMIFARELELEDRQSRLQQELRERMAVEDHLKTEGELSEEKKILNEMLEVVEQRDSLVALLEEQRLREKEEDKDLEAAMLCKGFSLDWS
UniProt Q8CGR7: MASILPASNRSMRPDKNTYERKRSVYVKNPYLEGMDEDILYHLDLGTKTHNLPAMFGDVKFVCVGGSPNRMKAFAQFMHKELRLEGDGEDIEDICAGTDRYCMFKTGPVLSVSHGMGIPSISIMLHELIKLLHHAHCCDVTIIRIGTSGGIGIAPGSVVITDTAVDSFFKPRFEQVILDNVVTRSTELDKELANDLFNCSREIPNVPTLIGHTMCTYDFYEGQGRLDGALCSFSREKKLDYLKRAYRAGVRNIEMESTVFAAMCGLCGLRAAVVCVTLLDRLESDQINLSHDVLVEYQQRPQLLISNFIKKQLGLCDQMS
UniProt Q8K0C4: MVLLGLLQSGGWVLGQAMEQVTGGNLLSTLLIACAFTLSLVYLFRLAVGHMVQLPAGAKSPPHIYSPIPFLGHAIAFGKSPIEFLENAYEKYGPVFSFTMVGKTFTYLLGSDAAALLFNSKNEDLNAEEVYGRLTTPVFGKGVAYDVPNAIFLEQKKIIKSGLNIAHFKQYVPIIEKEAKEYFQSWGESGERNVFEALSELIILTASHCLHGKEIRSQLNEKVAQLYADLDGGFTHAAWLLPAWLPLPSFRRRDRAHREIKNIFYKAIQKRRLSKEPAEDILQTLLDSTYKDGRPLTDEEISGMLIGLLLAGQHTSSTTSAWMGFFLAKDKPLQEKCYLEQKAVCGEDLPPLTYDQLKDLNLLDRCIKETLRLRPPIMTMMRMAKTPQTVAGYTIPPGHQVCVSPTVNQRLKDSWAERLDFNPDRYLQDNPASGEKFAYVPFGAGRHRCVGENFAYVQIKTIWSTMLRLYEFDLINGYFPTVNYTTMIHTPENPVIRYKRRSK
UniProt Q8CCS6: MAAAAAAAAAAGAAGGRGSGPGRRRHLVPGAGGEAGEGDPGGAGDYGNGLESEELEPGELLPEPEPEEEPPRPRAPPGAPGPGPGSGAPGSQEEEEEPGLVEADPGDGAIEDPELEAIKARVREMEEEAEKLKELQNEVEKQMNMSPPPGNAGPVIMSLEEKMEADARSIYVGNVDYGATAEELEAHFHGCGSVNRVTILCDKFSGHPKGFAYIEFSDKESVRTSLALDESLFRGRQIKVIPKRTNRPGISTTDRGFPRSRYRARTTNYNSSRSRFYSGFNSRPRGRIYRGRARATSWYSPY
UniProt Q8CI12: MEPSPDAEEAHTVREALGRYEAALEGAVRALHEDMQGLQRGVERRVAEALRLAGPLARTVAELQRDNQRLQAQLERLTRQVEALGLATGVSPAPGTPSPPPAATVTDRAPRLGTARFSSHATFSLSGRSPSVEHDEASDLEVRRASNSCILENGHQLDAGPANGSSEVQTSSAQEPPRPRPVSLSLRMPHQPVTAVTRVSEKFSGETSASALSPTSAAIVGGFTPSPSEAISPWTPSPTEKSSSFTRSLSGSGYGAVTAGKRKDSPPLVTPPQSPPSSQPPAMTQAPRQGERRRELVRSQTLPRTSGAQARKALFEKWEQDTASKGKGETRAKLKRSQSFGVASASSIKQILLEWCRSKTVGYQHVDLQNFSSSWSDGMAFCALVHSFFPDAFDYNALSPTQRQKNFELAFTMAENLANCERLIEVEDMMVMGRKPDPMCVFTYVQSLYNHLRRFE
UniProt Q8JZX9: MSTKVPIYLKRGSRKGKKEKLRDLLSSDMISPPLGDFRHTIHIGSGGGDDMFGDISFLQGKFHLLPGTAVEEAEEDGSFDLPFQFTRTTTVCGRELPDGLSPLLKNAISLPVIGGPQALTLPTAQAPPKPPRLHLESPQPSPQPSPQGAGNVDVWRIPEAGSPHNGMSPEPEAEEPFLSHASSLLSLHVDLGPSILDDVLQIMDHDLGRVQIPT

The list shows a part of the results. Most entries show no effect beyond the scatter of the controls.

Compound in this experiment: CN[C@@H]1C[C@H]2O[C@@](C)([C@@H]1OC)n1c3ccccc3c3c4c(c5c6ccccc6n2c5c31)C(=O)NC4 [staurosporine]
Briefly: log2 fold change of tryptic peptide abundance, ligand vs vehicle (limited proteolysis) (log2 ratio); higher = more trypsin-susceptible (destabilized). The note with it: ligand concentration: 20 uM; sample: mouse liver crude lysate; replicate design: treated separately.
Take “UniProt Q8K0E8 (peptide sequence: RKEEPPSLR, peptide start residue: 42)”: the log2 fold change amounted to 0.605.

In the case of “UniProt Q8CGN4 (peptide sequence: HLIPQESR, peptide start residue: 1370)”, the log2 fold change was determined as 0.237.

Consider “UniProt Q8CG48 (peptide sequence: HNLQNNESQLK, peptide start residue: 899)”, for which the log2 fold change came out at 0.839.

As for “UniProt Q8CJ19 (peptide sequence: YESELMIFAR, peptide start residue: 1901)”, the log2 fold change is -0.341.

On to “UniProt Q8CGR7 (peptide sequence: STELDKELANDLFNCSR, peptide start residue: 185)”, for which the log2 fold change was -0.182.

For “UniProt Q8K0C4 (peptide sequence: LDFNPDR, peptide start residue: 419)”, the log2 fold change was -0.0861.

Regarding “UniProt Q8CCS6 (peptide sequence: LKELQNEVEK, peptide start residue: 132)”, the log2 fold change turned out to be 0.215.

Regarding “UniProt Q8CG03 (peptide sequence: KELNMEPADLMNR, peptide start residue: 785)”, the log2 fold change was 0.251.

Consider “UniProt Q8CGI1 (peptide sequence: VVDLALLTEQK, peptide start residue: 1093)”, for which the log2 fold change amounted to 0.209.

Regarding “UniProt Q8CI12 (peptide sequence: MPHQPVTAVTR, peptide start residue: 188)”, the log2 fold change worked out at 0.594.

“UniProt Q8JZX9 (peptide sequence: ELPDGLSPLLK, peptide start residue: 95)”: the log2 fold change is -0.233.
